Measurements as given in the supplement of paper PMC11732987, “Enantioselective OTUD7B fragment discovery through chemoproteomics screening and high-throughput optimisation” (Communications Chemistry, 2025).
This is one part of the list. The data scatter; read single values as rough.

By UniProt entry, the sequences of proteins in these tests, tags left out. Where a name states a change or a piece, a line headed by the entry shows the natural chain unless it says otherwise. Residues count along the entry.
UniProt Q05397, whole entry, looked up: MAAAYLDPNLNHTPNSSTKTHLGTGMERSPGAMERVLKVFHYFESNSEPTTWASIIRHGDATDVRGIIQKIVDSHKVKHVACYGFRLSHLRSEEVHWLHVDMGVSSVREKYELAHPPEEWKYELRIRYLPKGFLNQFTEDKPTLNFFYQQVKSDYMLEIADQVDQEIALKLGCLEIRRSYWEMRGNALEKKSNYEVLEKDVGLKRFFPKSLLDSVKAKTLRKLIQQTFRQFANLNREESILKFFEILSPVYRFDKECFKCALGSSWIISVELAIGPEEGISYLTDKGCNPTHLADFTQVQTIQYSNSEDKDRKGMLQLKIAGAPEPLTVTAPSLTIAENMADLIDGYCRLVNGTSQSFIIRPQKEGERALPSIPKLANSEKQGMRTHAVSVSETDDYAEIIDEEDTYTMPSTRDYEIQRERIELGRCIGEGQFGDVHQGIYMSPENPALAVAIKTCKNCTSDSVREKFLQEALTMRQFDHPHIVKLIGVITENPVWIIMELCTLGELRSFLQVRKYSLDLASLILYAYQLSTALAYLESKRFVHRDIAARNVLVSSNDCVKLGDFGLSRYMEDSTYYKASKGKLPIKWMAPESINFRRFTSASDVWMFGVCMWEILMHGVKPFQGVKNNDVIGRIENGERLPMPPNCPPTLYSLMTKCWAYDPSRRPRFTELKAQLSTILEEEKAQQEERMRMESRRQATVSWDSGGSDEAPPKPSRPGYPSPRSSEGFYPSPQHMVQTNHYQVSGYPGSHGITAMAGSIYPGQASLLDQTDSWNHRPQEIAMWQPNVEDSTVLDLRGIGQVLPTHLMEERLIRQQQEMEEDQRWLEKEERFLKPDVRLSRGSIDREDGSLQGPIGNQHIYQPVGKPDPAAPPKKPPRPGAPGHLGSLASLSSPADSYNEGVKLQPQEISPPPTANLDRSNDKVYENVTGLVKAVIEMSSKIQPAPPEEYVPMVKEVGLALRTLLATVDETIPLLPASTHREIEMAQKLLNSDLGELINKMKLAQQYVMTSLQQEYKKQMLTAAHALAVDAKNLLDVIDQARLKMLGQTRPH
UniProt Q9UJ41, 172-192: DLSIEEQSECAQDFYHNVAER
UniProt Q9Y3P9: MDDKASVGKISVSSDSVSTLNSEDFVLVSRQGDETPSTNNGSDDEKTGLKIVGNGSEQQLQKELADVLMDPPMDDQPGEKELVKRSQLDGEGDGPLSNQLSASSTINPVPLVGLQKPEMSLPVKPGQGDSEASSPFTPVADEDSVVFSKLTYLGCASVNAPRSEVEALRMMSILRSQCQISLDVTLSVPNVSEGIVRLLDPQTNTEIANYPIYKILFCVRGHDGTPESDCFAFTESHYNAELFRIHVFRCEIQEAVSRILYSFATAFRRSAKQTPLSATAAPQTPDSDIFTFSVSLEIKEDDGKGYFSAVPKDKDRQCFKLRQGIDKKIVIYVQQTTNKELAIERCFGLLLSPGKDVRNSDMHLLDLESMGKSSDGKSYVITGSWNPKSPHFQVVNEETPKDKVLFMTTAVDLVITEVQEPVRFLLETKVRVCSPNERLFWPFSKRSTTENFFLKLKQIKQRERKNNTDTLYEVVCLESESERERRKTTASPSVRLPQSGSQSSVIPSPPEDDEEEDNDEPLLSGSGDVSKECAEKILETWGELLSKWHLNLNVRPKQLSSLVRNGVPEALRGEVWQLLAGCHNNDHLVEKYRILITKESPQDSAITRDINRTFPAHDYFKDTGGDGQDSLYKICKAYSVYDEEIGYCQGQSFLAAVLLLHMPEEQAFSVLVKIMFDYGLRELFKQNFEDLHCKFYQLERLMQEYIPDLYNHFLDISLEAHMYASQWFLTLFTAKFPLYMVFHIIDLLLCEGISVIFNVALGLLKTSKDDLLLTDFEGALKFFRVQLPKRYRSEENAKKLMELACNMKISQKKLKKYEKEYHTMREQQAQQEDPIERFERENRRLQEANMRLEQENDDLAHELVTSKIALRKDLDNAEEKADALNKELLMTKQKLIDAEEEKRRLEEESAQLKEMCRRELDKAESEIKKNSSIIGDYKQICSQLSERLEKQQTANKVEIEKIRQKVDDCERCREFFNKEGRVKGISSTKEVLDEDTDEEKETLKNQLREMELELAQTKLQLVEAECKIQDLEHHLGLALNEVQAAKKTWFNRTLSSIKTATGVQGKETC
UniProt Q14997: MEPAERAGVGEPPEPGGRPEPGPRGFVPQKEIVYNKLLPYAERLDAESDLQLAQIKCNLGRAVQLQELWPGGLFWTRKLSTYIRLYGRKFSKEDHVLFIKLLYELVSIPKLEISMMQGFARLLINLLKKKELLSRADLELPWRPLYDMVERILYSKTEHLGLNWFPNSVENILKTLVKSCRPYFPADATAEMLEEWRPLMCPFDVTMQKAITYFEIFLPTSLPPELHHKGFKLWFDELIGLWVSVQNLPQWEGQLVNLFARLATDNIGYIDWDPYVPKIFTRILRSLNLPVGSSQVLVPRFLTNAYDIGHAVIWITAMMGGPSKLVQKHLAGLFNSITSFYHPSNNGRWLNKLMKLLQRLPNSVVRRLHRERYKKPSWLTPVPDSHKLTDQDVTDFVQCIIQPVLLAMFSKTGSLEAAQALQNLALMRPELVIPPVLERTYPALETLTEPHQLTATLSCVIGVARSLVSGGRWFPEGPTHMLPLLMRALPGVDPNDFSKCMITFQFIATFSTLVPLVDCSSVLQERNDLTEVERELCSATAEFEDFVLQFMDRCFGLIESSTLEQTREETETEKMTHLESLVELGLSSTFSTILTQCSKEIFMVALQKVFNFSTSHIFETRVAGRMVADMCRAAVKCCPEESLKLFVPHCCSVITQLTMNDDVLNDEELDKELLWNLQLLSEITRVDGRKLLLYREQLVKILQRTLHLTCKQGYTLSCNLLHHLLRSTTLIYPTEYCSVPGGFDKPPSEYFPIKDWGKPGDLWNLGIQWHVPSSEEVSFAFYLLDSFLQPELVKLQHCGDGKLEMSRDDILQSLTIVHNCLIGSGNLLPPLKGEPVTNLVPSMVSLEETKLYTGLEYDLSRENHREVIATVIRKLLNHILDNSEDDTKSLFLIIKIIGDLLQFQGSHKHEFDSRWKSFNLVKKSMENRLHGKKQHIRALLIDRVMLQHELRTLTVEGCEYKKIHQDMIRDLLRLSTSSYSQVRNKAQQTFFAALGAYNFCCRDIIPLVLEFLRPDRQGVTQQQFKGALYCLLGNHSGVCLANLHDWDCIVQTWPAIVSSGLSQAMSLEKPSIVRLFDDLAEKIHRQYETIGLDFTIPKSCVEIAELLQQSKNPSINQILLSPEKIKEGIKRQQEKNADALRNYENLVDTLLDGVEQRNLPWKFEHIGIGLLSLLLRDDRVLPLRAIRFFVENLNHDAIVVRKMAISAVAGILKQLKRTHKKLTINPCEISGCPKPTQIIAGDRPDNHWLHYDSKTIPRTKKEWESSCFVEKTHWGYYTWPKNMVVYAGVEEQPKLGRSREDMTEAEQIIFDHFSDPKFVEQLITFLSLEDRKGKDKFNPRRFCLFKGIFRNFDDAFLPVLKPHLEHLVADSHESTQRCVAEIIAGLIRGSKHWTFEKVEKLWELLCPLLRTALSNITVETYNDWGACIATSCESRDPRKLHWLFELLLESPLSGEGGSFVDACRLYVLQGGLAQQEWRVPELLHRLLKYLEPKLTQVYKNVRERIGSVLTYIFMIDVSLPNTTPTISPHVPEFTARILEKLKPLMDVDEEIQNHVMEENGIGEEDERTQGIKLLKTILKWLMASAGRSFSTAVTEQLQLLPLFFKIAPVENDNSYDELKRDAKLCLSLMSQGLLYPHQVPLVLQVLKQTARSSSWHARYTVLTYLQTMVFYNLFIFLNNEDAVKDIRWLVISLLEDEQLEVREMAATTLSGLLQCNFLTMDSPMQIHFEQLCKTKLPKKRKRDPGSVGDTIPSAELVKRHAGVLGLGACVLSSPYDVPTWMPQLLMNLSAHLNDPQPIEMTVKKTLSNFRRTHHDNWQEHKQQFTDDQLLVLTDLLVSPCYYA
UniProt Q9Y3E5: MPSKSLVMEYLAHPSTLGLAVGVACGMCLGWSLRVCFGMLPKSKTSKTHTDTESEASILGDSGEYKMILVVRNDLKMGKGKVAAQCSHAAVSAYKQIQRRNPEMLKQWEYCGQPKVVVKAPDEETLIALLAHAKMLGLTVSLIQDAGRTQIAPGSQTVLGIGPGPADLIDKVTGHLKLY
UniProt Q92696: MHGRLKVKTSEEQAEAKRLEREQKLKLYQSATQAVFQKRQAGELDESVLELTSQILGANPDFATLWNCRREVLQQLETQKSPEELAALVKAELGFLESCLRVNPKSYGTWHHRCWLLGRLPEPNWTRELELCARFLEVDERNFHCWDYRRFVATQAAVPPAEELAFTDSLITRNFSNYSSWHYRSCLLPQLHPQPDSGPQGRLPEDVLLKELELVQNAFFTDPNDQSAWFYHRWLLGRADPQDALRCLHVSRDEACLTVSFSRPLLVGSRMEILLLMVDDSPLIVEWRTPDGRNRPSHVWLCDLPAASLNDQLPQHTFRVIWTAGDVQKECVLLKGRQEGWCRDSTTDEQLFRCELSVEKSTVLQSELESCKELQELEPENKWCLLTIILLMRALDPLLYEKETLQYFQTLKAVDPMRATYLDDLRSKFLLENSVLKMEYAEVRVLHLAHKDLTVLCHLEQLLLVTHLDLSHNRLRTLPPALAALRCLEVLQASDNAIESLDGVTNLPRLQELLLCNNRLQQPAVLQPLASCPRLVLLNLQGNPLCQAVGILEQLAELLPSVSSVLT
UniProt Q9H2M9, 826-858: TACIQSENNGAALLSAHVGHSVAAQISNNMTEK
UniProt P61019: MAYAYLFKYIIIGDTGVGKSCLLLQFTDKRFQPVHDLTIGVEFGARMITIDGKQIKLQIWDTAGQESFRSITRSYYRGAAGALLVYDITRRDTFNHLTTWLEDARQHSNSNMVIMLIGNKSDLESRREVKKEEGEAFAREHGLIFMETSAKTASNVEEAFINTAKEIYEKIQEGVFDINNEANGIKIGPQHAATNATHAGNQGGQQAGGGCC
UniProt P25786: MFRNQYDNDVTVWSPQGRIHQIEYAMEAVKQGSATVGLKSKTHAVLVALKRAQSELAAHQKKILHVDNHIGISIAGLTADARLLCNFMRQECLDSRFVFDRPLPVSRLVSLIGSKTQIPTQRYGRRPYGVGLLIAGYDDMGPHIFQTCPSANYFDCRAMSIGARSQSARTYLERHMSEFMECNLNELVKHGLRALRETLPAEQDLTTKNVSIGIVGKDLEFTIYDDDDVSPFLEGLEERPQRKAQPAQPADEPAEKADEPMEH
UniProt Q15042: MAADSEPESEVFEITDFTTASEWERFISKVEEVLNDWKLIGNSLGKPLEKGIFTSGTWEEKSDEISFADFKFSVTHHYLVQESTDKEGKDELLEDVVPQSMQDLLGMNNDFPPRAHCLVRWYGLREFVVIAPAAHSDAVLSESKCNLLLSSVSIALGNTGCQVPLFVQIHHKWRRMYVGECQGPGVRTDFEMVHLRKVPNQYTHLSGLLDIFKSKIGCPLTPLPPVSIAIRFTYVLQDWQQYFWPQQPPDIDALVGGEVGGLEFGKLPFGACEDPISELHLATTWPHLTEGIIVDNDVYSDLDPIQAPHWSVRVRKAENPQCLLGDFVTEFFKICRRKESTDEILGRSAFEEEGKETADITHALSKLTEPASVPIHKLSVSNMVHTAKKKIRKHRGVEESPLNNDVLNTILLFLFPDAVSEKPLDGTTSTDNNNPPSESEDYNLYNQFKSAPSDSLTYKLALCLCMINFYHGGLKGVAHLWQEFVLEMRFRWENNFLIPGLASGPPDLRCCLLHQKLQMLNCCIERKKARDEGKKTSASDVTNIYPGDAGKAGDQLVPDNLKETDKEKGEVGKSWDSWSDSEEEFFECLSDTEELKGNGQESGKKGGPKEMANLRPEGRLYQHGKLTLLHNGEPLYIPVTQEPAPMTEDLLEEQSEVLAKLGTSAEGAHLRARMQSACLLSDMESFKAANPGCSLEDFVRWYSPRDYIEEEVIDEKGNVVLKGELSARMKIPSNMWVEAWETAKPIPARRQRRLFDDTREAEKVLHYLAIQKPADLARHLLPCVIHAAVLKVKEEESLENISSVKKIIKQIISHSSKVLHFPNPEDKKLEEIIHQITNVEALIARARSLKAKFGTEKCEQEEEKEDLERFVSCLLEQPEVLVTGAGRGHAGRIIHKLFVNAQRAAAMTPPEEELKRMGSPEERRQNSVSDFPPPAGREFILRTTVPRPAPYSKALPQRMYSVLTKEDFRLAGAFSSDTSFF
UniProt Q7Z6M1: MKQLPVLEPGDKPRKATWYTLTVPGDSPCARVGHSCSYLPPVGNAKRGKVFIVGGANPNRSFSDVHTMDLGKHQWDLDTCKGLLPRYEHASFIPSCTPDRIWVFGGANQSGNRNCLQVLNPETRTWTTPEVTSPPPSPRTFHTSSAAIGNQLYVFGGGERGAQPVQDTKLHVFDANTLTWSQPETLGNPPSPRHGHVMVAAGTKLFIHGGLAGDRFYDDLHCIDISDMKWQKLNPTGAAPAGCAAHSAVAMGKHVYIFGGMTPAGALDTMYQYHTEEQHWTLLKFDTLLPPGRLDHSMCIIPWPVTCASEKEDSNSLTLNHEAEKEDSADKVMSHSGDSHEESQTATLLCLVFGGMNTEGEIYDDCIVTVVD

How the values were obtained:
[1] = compound: ClCC(=O)N[C@@H]1CCCc2ccccc12; assay: log2 mean competition ratio of IA-DTB cysteine labelling (DMSO/compound) (log2 ratio); higher = stronger cysteine engagement by compound; conditions: treatment time: 4 h, cell line lysate: HEK293T
Protocol: (§1)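 IA-DTB competitive cysteine chemoproteomics in HEK293T RIPA lysate. Lysates were treated with compound 29 or 30 at 50 or 200 µM for 4 h, then IA-DTB (500 µM, 1 h), trypsin-digested, NeutrAvidin-enriched and analysed by diaPASEF. Competition ratio = intensity DMSO / intensity compound (n=4 treated, n=64 DMSO); binding: mean log2 CR ≥ 1 and p ≤ 0.05 plus QC filters. Target is the cysteine site.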

[2] = compound: ClCC(=O)N[C@H]1CCCc2ccccc12; assay: as above; conditions: treatment time: 4 h, cell line lysate: HEK293T
Protocol: as §1

| Target | log2 mean competition ratio ([1]; 50 µM) | log2 mean competition ratio ([1]; 200 µM) | log2 mean competition ratio ([2]; 50 µM) | log2 mean competition ratio ([2]; 200 µM) |
| --- | --- | --- | --- | --- |
| RABL3 C180 (UniProt Q5HYI8) | -0.112 | -0.00612 | -0.347 | 0.122 |
| PSMD1 C141 | -0.0997 | -0.0931 | -0.0894 | -0.168 |
| RAB11FIP1 C1028 (UniProt Q6WKZ4) | 0.184 | -0.00231 | 0.234 | 0.262 |
| PTK2 C658 (UniProt Q05397) | -0.00566 | 0.132 | -0.133 | 0.109 |
| RABGEF1 C181 (UniProt Q9UJ41) | -0.0721 | 0.0544 | 0.616 | -0.243 |
| PSIP1 C204 | -0.445 | 0.137 | -0.836 | 0.0813 |
| PTPN9 C338 (UniProt P43378) | 0.0811 | -0.00532 | -0.0037 | 0.0833 |
| RABGAP1 C1026 (UniProt Q9Y3P9) | 0.617 | 0.0339 | 0.813 | 0.147 |
| PSME4 C710 (UniProt Q14997) | 0.0056 | -0.243 | 0.29 | -0.192 |
| RAB32 C162 (UniProt Q13637) | -0.129 | 0.0217 | 0.224 | 0.105 |
| PSME4 C958 (UniProt Q14997) | -0.251 | 0.101 | -0.349 | -0.0759 |
| PSMC6 C170 (UniProt P62333) | 0.278 | 0.317 | 0.0385 | 0.21 |
| PTPN18 C240 (UniProt Q99952) | 0.341 | 0.287 | 0.299 | 0.349 |
| PSMD1 C112 | -0.253 | -0.272 | -0.282 | -0.288 |
| PSRC1 C178 (UniProt Q6PGN9) | 0.133 | -0.0118 | 0.263 | 0.0857 |
| PUS7L C142 (UniProt Q9H0K6) | 0.0419 | 0.00628 | -0.111 | 0.015 |
| RACGAP1 C419 (UniProt Q9H0H5) | 0.201 | -0.171 | -0.255 | -0.421 |
| PRRC2B C868 | 0.38 | 0.131 | 0.00608 | -0.0856 |
| RABGEF1 C404 (UniProt Q9UJ41) | -0.303 | 0.286 | -0.384 | 0.13 |
| PYGB C808 (UniProt P11216) | -0.0971 | -0.163 | 0.0179 | 0.113 |
| PTRH2 C36 (UniProt Q9Y3E5) | 0.0892 | -1.22 | 0.0551 | -0.735 |
| RABGGTA C371 (UniProt Q92696) | -0.134 | 0.0115 | 0.00915 | 0.00506 |

For reference, part of the list above.

| Target | log2 mean competition ratio ([1]; 50 µM) | log2 mean competition ratio ([1]; 200 µM) | log2 mean competition ratio ([2]; 50 µM) | log2 mean competition ratio ([2]; 200 µM) |
| --- | --- | --- | --- | --- |
| PTK2 C658 (UniProt Q05397) | -0.00566 | 0.132 | -0.133 | 0.109 |
| RABGEF1 C181 (UniProt Q9UJ41) | -0.0721 | 0.0544 | 0.616 | -0.243 |
| PSIP1 C204 | -0.445 | 0.137 | -0.836 | 0.0813 |
| PTPN9 C338 (UniProt P43378) | 0.0811 | -0.00532 | -0.0037 | 0.0833 |
| RABGAP1 C1026 (UniProt Q9Y3P9) | 0.617 | 0.0339 | 0.813 | 0.147 |
| PSME4 C710 (UniProt Q14997) | 0.0056 | -0.243 | 0.29 | -0.192 |
| RAB32 C162 (UniProt Q13637) | -0.129 | 0.0217 | 0.224 | 0.105 |
| PSME4 C958 (UniProt Q14997) | -0.251 | 0.101 | -0.349 | -0.0759 |
| PSMC6 C170 (UniProt P62333) | 0.278 | 0.317 | 0.0385 | 0.21 |
| PTPN18 C240 (UniProt Q99952) | 0.341 | 0.287 | 0.299 | 0.349 |
| PSMD1 C112 | -0.253 | -0.272 | -0.282 | -0.288 |
| PSRC1 C178 (UniProt Q6PGN9) | 0.133 | -0.0118 | 0.263 | 0.0857 |
| PUS7L C142 (UniProt Q9H0K6) | 0.0419 | 0.00628 | -0.111 | 0.015 |
| RACGAP1 C419 (UniProt Q9H0H5) | 0.201 | -0.171 | -0.255 | -0.421 |

Following part

| Target | log2 mean competition ratio ([1]; 50 µM) | log2 mean competition ratio ([1]; 200 µM) | log2 mean competition ratio ([2]; 50 µM) | log2 mean competition ratio ([2]; 200 µM) |
| --- | --- | --- | --- | --- |
| RABGGTA C354 (UniProt Q92696) | -0.131 | -0.244 | -0.0315 | -0.207 |
| RAD50 C1302 | 0.515 | 0.159 | 0.475 | 0.254 |
| RAB28 C169 (UniProt P51157) | 0.244 | -0.188 | 0.381 | -0.27 |
| RAB14 C26 (UniProt P61106) | 0.0474 | -0.0561 | -0.24 | -0.213 |
| QSER1 C235 | -0.544 | 0.0254 | -0.178 | 0.126 |
| PRRC2C C2788 (UniProt Q9Y520) | -0.0203 | 0.0633 | 0.108 | 0.229 |
| RADIL C671 | 0.0611 | 0.311 | 0.0612 | 0.46 |
| PSMC2 C377 (UniProt P35998) | 0.0671 | 0.231 | -0.231 | 0.0837 |
| PYROXD1 C122 (UniProt Q8WU10) | 0.46 | 0.232 | -0.11 | 0.0404 |
| PSME3 C92 | -0.0194 | 0.00662 | -0.0089 | 0.0151 |
| PTCD1 C332 (UniProt O75127) | 0.398 | -0.0273 | -0.278 | -0.15 |
| PRRC2B C1101 | 0.125 | 0.143 | 0.325 | 0.209 |
| RABEP1 C718 (UniProt Q15276) | 0.121 | -0.186 | 0.19 | -0.237 |
| RAB3GAP2 C828 (UniProt Q9H2M9) | -0.247 | -0.342 | -0.113 | -0.15 |
| PSME2 C91 (UniProt Q9UL46) | 0.0492 | -0.106 | -0.0463 | 0.0205 |
| RABGAP1L C777 (UniProt Q5R372) | 0.289 | 0.0158 | -0.18 | 0.0968 |
| RAB22A C120 (UniProt Q9UL26) | -0.164 | 0.0847 | -0.206 | 0.0683 |
| RAD54L C207 (UniProt Q92698) | -0.366 | -0.0438 | -0.138 | -0.143 |
| RAB2A C21 (UniProt P61019) | 0.326 | 0.237 | -0.0647 | 0.0464 |
| PRRC2C C223 (UniProt Q9Y520) | -0.0177 | -0.00157 | 0.148 | 0.0185 |
| PUS1 C125 (UniProt Q9Y606) | 0.345 | -0.0819 | -0.0172 | -0.148 |
| QRSL1 C88 (UniProt Q9H0R6) | -0.0569 | -0.135 | 0.175 | -0.11 |

| Target | log2 mean competition ratio ([1]; 50 µM) | log2 mean competition ratio ([1]; 200 µM) | log2 mean competition ratio ([2]; 50 µM) | log2 mean competition ratio ([2]; 200 µM) |
| --- | --- | --- | --- | --- |
| PTDSS1 C4 (UniProt P48651) | 0.139 | 0.183 | -0.039 | 0.421 |
| PTK2 C459 (UniProt Q05397) | 0.0397 | 0.0768 | 0.0187 | 0.137 |
| PSME3IP1 C44 | -0.033 | -0.14 | -0.0989 | -0.0189 |
| RAD51C C68 (UniProt O43502) | 0.104 | -0.159 | 0.182 | -0.166 |
| RAB41 C30 | 0.491 | -0.247 | 0.532 | -0.0412 |
| RAD21 C35 (UniProt O60216) | -0.0735 | 0.416 | 0.00793 | 0.193 |
| PSMA1 C182 (UniProt P25786) | 0.363 | 0.224 | 0.027 | 0.0852 |
| RABGAP1 C476 (UniProt Q9Y3P9) | -0.228 | 0.0088 | 0.00979 | -0.162 |
| RAD51B C185 (UniProt O15315) | -0.162 | 0.0206 | -0.346 | 0.00461 |
| RAD50 C133 | 0.019 | 0.273 | -0.378 | 0.269 |
| RAB3GAP1 C858 (UniProt Q15042) | -0.103 | -0.197 | -0.254 | -0.314 |
| PSMC3 C240 | 0.0313 | 0.151 | 0.0184 | 0.073 |
| RABGGTA C516 (UniProt Q92696) | 0.372 | 0.0204 | 0.016 | -0.0122 |
| RABGAP1L C665 (UniProt Q5R372) | -0.0358 | 0.0858 | -0.383 | -0.0667 |
| PTPN14 C133 (UniProt Q15678) | 0.0319 | -0.0906 | -0.254 | -0.196 |
| PTCD2 C67 (UniProt Q8WV60) | 0.0285 | -0.031 | 0.378 | -0.0437 |
| PRR14L C1640 (UniProt Q5THK1) | -0.0392 | 0.269 | 0.0067 | 0.366 |
| PTEN C71 (UniProt P60484) | 0.224 | 0.0242 | 0.176 | 0.116 |
| PSMD11 C202 (UniProt O00231) | -0.12 | -0.188 | -0.364 | -0.138 |
| R3HCC1L C147 | -0.216 | 0.286 | -0.367 | -0.0182 |
| RABEPK C96 (UniProt Q7Z6M1) | 0.0529 | 0.0213 | -0.144 | -0.256 |
| RAD50 C1296 | -0.116 | -0.00449 | -0.508 | 0.0681 |
